Results are given in words; binding and its absence hold for the method and conditions named. A result given as binding can be weak or reduced; the word gives no strength.
Experiments:
Experiment in all cases: ELISA; microtiter plates coated with non-denatured HcpA or deletion mutants (1 µg/ml), incubated with CFH (10 µg/ml) or PLG (20 µg/ml) for 1 h at RT; goat anti-CFH or goat anti-PLG; both purified
[1] = target: T1, HcpA deletion mutant, residues 18-115 (B. recurrentis A1) (UniProt C1L349)
T1 sequence: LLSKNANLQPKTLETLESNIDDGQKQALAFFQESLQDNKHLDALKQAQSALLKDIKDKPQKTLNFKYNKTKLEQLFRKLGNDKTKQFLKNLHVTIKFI

[2] = target: T2, HcpA deletion mutant, residues 18-145 (B. recurrentis A1) (UniProt C1L349)
T2 sequence: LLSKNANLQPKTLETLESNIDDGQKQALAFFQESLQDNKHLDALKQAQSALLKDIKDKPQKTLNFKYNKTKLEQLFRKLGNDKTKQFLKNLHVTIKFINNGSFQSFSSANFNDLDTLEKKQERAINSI

[3] = target: T3, HcpA deletion mutant, residues 48-175 (B. recurrentis A1) (UniProt C1L349)
T3 sequence: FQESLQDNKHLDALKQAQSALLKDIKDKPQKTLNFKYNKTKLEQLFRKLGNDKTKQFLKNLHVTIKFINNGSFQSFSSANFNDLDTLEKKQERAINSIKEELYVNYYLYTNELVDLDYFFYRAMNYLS

[4] = target: T4, HcpA deletion mutant, residues 78-175 (B. recurrentis A1) (UniProt C1L349)
T4 sequence: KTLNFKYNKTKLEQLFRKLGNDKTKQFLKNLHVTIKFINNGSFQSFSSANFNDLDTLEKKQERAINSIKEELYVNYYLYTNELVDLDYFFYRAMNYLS

Measured: binding

human plasminogen
binds: all assays above

— article PMC2654920, “Borrelia recurrentis Employs a Novel Multifunctional Surface Protein with Anti-Complement, Anti-Opsonic and Invasive Potential to Escape Innate Immunity” (PLoS ONE, 2009)
